Laboratory results as given in article doi:10.1101/2023.02.09.527857.
Results are given in words; binding and its absence hold for the method and conditions named. Binding seen in cells or lysates may run through a third protein. Some entries that bind do so weakly or less than the wild type. Where a sequence is shown, tags or fusion partners need not be part of it.

T1: myc-tagged 14-3-3γ (human) (UniProt P61981)
T1 sequence: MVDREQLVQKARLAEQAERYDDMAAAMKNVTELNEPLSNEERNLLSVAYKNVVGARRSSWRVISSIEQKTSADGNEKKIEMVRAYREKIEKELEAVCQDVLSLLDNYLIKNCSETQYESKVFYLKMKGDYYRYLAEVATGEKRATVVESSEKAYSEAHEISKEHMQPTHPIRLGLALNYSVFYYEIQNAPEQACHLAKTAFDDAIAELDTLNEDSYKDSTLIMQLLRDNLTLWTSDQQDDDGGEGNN


Biological target: T1, myc-tagged 14-3-3γ (human)
Experiment: co-IP

binding	Binder
binds	SMAUG1-FLAG S168A (protein, UniProt Q9UPU9-1 1-718) MMFRDQVGVLAGWFKGWNECEQTVALLSLLKRVSQTQARFLQLCLEHSLADCAELHVLEREANSPGIINQWQQESKDKVISLLLTHLPLLKPGNLDAKVEYMKLLPKILAHSIEHNQHIEESRQLLSYALIHPATSLEDRSALAMWLNHLEDRTSTSFGGQNRGRSDAVDYGQTHYYHQRQNSDDKLNGWQNSRDSGICINASNWQDKSMGCENGHVPLYSSSSVPTTINTIGTSTSTILSGQAHHSPLKRSVSLTPPMNVPNQPLGHGWMSHEDLRARGPQCLPSDHAPLSPQSSVASSGSGGSEHLEDQTTARNTFQEEGSGMKDVPAWLKSLRLHKYAALFSQMTYEEMMALTECQLEAQNVTKGARHKIVISIQKLKERQNLLKSLERDIIEGGSLRIPLQELHQMILTPIKAYSSPSTTPEARRREPQAPRQPSLMGPESQSPDCKDGAAATGATATPSAGASGGLQPHQLSSCDGELAVAPLPEGDLPGQFTRVMGKVCTQLLVSRPDEENISSYLQLIDKCLIHEAFTETQKKRLLSWKQQVQKLFRSFPRKTLLDISGYRQQRNRGFGQSNSLPTAGSVGGGMGRRNPRQYQIPSRNVPSARLGLLGTSGFVSSNQRNTTATPTIMKQGRQNLWFANPGGSNSMPSRTHSSVQRTRSLPVHTSPQNMLMFQQPEFQLPVTEPDINNRLESLCLSMTEHALGDGVDRTSTI
binds	SMAUG1-FLAG S580A (protein, UniProt Q9UPU9-1 1-718) MMFRDQVGVLAGWFKGWNECEQTVALLSLLKRVSQTQARFLQLCLEHSLADCAELHVLEREANSPGIINQWQQESKDKVISLLLTHLPLLKPGNLDAKVEYMKLLPKILAHSIEHNQHIEESRQLLSYALIHPATSLEDRSALAMWLNHLEDRTSTSFGGQNRGRSDSVDYGQTHYYHQRQNSDDKLNGWQNSRDSGICINASNWQDKSMGCENGHVPLYSSSSVPTTINTIGTSTSTILSGQAHHSPLKRSVSLTPPMNVPNQPLGHGWMSHEDLRARGPQCLPSDHAPLSPQSSVASSGSGGSEHLEDQTTARNTFQEEGSGMKDVPAWLKSLRLHKYAALFSQMTYEEMMALTECQLEAQNVTKGARHKIVISIQKLKERQNLLKSLERDIIEGGSLRIPLQELHQMILTPIKAYSSPSTTPEARRREPQAPRQPSLMGPESQSPDCKDGAAATGATATPSAGASGGLQPHQLSSCDGELAVAPLPEGDLPGQFTRVMGKVCTQLLVSRPDEENISSYLQLIDKCLIHEAFTETQKKRLLSWKQQVQKLFRSFPRKTLLDISGYRQQRNRGFGQSNALPTAGSVGGGMGRRNPRQYQIPSRNVPSARLGLLGTSGFVSSNQRNTTATPTIMKQGRQNLWFANPGGSNSMPSRTHSSVQRTRSLPVHTSPQNMLMFQQPEFQLPVTEPDINNRLESLCLSMTEHALGDGVDRTSTI
binds	SMAUG1-FLAG S665A (protein, UniProt Q9UPU9-1 1-718) MMFRDQVGVLAGWFKGWNECEQTVALLSLLKRVSQTQARFLQLCLEHSLADCAELHVLEREANSPGIINQWQQESKDKVISLLLTHLPLLKPGNLDAKVEYMKLLPKILAHSIEHNQHIEESRQLLSYALIHPATSLEDRSALAMWLNHLEDRTSTSFGGQNRGRSDSVDYGQTHYYHQRQNSDDKLNGWQNSRDSGICINASNWQDKSMGCENGHVPLYSSSSVPTTINTIGTSTSTILSGQAHHSPLKRSVSLTPPMNVPNQPLGHGWMSHEDLRARGPQCLPSDHAPLSPQSSVASSGSGGSEHLEDQTTARNTFQEEGSGMKDVPAWLKSLRLHKYAALFSQMTYEEMMALTECQLEAQNVTKGARHKIVISIQKLKERQNLLKSLERDIIEGGSLRIPLQELHQMILTPIKAYSSPSTTPEARRREPQAPRQPSLMGPESQSPDCKDGAAATGATATPSAGASGGLQPHQLSSCDGELAVAPLPEGDLPGQFTRVMGKVCTQLLVSRPDEENISSYLQLIDKCLIHEAFTETQKKRLLSWKQQVQKLFRSFPRKTLLDISGYRQQRNRGFGQSNSLPTAGSVGGGMGRRNPRQYQIPSRNVPSARLGLLGTSGFVSSNQRNTTATPTIMKQGRQNLWFANPGGSNSMPSRTHSSVQRTRALPVHTSPQNMLMFQQPEFQLPVTEPDINNRLESLCLSMTEHALGDGVDRTSTI
binds	SMAUG1-FLAG S254A (protein, UniProt Q9UPU9-1 1-718) MMFRDQVGVLAGWFKGWNECEQTVALLSLLKRVSQTQARFLQLCLEHSLADCAELHVLEREANSPGIINQWQQESKDKVISLLLTHLPLLKPGNLDAKVEYMKLLPKILAHSIEHNQHIEESRQLLSYALIHPATSLEDRSALAMWLNHLEDRTSTSFGGQNRGRSDSVDYGQTHYYHQRQNSDDKLNGWQNSRDSGICINASNWQDKSMGCENGHVPLYSSSSVPTTINTIGTSTSTILSGQAHHSPLKRSVALTPPMNVPNQPLGHGWMSHEDLRARGPQCLPSDHAPLSPQSSVASSGSGGSEHLEDQTTARNTFQEEGSGMKDVPAWLKSLRLHKYAALFSQMTYEEMMALTECQLEAQNVTKGARHKIVISIQKLKERQNLLKSLERDIIEGGSLRIPLQELHQMILTPIKAYSSPSTTPEARRREPQAPRQPSLMGPESQSPDCKDGAAATGATATPSAGASGGLQPHQLSSCDGELAVAPLPEGDLPGQFTRVMGKVCTQLLVSRPDEENISSYLQLIDKCLIHEAFTETQKKRLLSWKQQVQKLFRSFPRKTLLDISGYRQQRNRGFGQSNSLPTAGSVGGGMGRRNPRQYQIPSRNVPSARLGLLGTSGFVSSNQRNTTATPTIMKQGRQNLWFANPGGSNSMPSRTHSSVQRTRSLPVHTSPQNMLMFQQPEFQLPVTEPDINNRLESLCLSMTEHALGDGVDRTSTI
binds weakly	SMAUG1-FLAG S580/665A (protein, UniProt Q9UPU9-1 1-718) MMFRDQVGVLAGWFKGWNECEQTVALLSLLKRVSQTQARFLQLCLEHSLADCAELHVLEREANSPGIINQWQQESKDKVISLLLTHLPLLKPGNLDAKVEYMKLLPKILAHSIEHNQHIEESRQLLSYALIHPATSLEDRSALAMWLNHLEDRTSTSFGGQNRGRSDSVDYGQTHYYHQRQNSDDKLNGWQNSRDSGICINASNWQDKSMGCENGHVPLYSSSSVPTTINTIGTSTSTILSGQAHHSPLKRSVSLTPPMNVPNQPLGHGWMSHEDLRARGPQCLPSDHAPLSPQSSVASSGSGGSEHLEDQTTARNTFQEEGSGMKDVPAWLKSLRLHKYAALFSQMTYEEMMALTECQLEAQNVTKGARHKIVISIQKLKERQNLLKSLERDIIEGGSLRIPLQELHQMILTPIKAYSSPSTTPEARRREPQAPRQPSLMGPESQSPDCKDGAAATGATATPSAGASGGLQPHQLSSCDGELAVAPLPEGDLPGQFTRVMGKVCTQLLVSRPDEENISSYLQLIDKCLIHEAFTETQKKRLLSWKQQVQKLFRSFPRKTLLDISGYRQQRNRGFGQSNALPTAGSVGGGMGRRNPRQYQIPSRNVPSARLGLLGTSGFVSSNQRNTTATPTIMKQGRQNLWFANPGGSNSMPSRTHSSVQRTRALPVHTSPQNMLMFQQPEFQLPVTEPDINNRLESLCLSMTEHALGDGVDRTSTI
binds weakly	SMAUG1-FLAG S254/580A (protein, UniProt Q9UPU9-1 1-718) MMFRDQVGVLAGWFKGWNECEQTVALLSLLKRVSQTQARFLQLCLEHSLADCAELHVLEREANSPGIINQWQQESKDKVISLLLTHLPLLKPGNLDAKVEYMKLLPKILAHSIEHNQHIEESRQLLSYALIHPATSLEDRSALAMWLNHLEDRTSTSFGGQNRGRSDSVDYGQTHYYHQRQNSDDKLNGWQNSRDSGICINASNWQDKSMGCENGHVPLYSSSSVPTTINTIGTSTSTILSGQAHHSPLKRSVALTPPMNVPNQPLGHGWMSHEDLRARGPQCLPSDHAPLSPQSSVASSGSGGSEHLEDQTTARNTFQEEGSGMKDVPAWLKSLRLHKYAALFSQMTYEEMMALTECQLEAQNVTKGARHKIVISIQKLKERQNLLKSLERDIIEGGSLRIPLQELHQMILTPIKAYSSPSTTPEARRREPQAPRQPSLMGPESQSPDCKDGAAATGATATPSAGASGGLQPHQLSSCDGELAVAPLPEGDLPGQFTRVMGKVCTQLLVSRPDEENISSYLQLIDKCLIHEAFTETQKKRLLSWKQQVQKLFRSFPRKTLLDISGYRQQRNRGFGQSNALPTAGSVGGGMGRRNPRQYQIPSRNVPSARLGLLGTSGFVSSNQRNTTATPTIMKQGRQNLWFANPGGSNSMPSRTHSSVQRTRSLPVHTSPQNMLMFQQPEFQLPVTEPDINNRLESLCLSMTEHALGDGVDRTSTI
binds weakly	SMAUG1-FLAG S254/665A (protein, UniProt Q9UPU9-1 1-718) MMFRDQVGVLAGWFKGWNECEQTVALLSLLKRVSQTQARFLQLCLEHSLADCAELHVLEREANSPGIINQWQQESKDKVISLLLTHLPLLKPGNLDAKVEYMKLLPKILAHSIEHNQHIEESRQLLSYALIHPATSLEDRSALAMWLNHLEDRTSTSFGGQNRGRSDSVDYGQTHYYHQRQNSDDKLNGWQNSRDSGICINASNWQDKSMGCENGHVPLYSSSSVPTTINTIGTSTSTILSGQAHHSPLKRSVALTPPMNVPNQPLGHGWMSHEDLRARGPQCLPSDHAPLSPQSSVASSGSGGSEHLEDQTTARNTFQEEGSGMKDVPAWLKSLRLHKYAALFSQMTYEEMMALTECQLEAQNVTKGARHKIVISIQKLKERQNLLKSLERDIIEGGSLRIPLQELHQMILTPIKAYSSPSTTPEARRREPQAPRQPSLMGPESQSPDCKDGAAATGATATPSAGASGGLQPHQLSSCDGELAVAPLPEGDLPGQFTRVMGKVCTQLLVSRPDEENISSYLQLIDKCLIHEAFTETQKKRLLSWKQQVQKLFRSFPRKTLLDISGYRQQRNRGFGQSNSLPTAGSVGGGMGRRNPRQYQIPSRNVPSARLGLLGTSGFVSSNQRNTTATPTIMKQGRQNLWFANPGGSNSMPSRTHSSVQRTRALPVHTSPQNMLMFQQPEFQLPVTEPDINNRLESLCLSMTEHALGDGVDRTSTI
binds weakly	SMAUG1-FLAG S168/254A (protein, UniProt Q9UPU9-1 1-718) MMFRDQVGVLAGWFKGWNECEQTVALLSLLKRVSQTQARFLQLCLEHSLADCAELHVLEREANSPGIINQWQQESKDKVISLLLTHLPLLKPGNLDAKVEYMKLLPKILAHSIEHNQHIEESRQLLSYALIHPATSLEDRSALAMWLNHLEDRTSTSFGGQNRGRSDAVDYGQTHYYHQRQNSDDKLNGWQNSRDSGICINASNWQDKSMGCENGHVPLYSSSSVPTTINTIGTSTSTILSGQAHHSPLKRSVALTPPMNVPNQPLGHGWMSHEDLRARGPQCLPSDHAPLSPQSSVASSGSGGSEHLEDQTTARNTFQEEGSGMKDVPAWLKSLRLHKYAALFSQMTYEEMMALTECQLEAQNVTKGARHKIVISIQKLKERQNLLKSLERDIIEGGSLRIPLQELHQMILTPIKAYSSPSTTPEARRREPQAPRQPSLMGPESQSPDCKDGAAATGATATPSAGASGGLQPHQLSSCDGELAVAPLPEGDLPGQFTRVMGKVCTQLLVSRPDEENISSYLQLIDKCLIHEAFTETQKKRLLSWKQQVQKLFRSFPRKTLLDISGYRQQRNRGFGQSNSLPTAGSVGGGMGRRNPRQYQIPSRNVPSARLGLLGTSGFVSSNQRNTTATPTIMKQGRQNLWFANPGGSNSMPSRTHSSVQRTRSLPVHTSPQNMLMFQQPEFQLPVTEPDINNRLESLCLSMTEHALGDGVDRTSTI
